{"source": "paper PMC10897374", "about": "(Scientific Reports, 2024)", "assay": "general procedure: Fmoc solid-phase peptide synthesis; Fmoc-aa-hydroxymethylated resin, 0.6 to 1.00 mmol g^-1; DIC/HOBt", "conditions": "whole synthesis, 220 nm", "note": "Plain letter strings leave the end groups untold. Strings that start with PEPTIDE1 are HELM notation: dots part the residues, brackets hold end groups and non-standard residues.", "data": [{"substance": "PEPTIDE1{D.R.V.Y.I.H.P.F}$$$$V2.0", "values": [{"measurement": "final HPLC purity", "value": 98, "unit": "%"}]}, {"substance": "PEPTIDE1{V.I.P.F}$$$$V2.0", "values": [{"measurement": "final HPLC purity", "value": 99, "unit": "%"}]}, {"substance": "CDRVYIHPFC", "values": [{"measurement": "final HPLC purity", "setting": "one disulfide bridge, sequence written open", "value": 98, "unit": "%"}]}]}
